# From PubChem BioAssay AID2685 (National Center for Advancing Translational Sciences (NCATS), 2010)
# This is one part of the list. Further columns of the screen follow, without active or inactive calls. Most of these compounds were active or inconclusive in the main read-out, so they are no random draw. Potencies come from curve fits of mixed quality, noted in brackets.
# Assay: qHTS Assay for Lipid Storage Modulators in Drosophila S3 Cells;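 on cell number change: cells counted by Cell Tracker Red CMTPX staining in the red channel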
# Settings: BODIPY lipid droplet fluorescence, 18-24 h; for cell number change: measured here: cell count max response, cells fed with added oleic acid
# Outline: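 Drosophila S3 cells loaded with oleic acid (400 uM, as added) and compounds at several concentrations; lipid droplets imaged by 488-nm laser-scanning cytometry, 500–530 nm intensity and object ratio to cell channel. Percent activity normalized to 20 uM Triacsin C.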
# [1] = measured here: cell number channel AC50, cells fed with added oleic acid
# [2] = measured here: lipid fluorescence (Fed channel) AC50, cells fed with added oleic acid
Compound,cell number change,AC50 [1],AC50 [2]
CN1CCC(=NNC(=O)C(=O)Nc2ccccc2)CC1,49.1%,"16.4 µM [rising, single point]",
Cc1cc(C)nc(SCc2nnc(SCC(=O)Nc3nccs3)n2Cc2ccco2)n1,-6.61%,"3.66 µM [rising, single point]","1.16 µM [rising, partial curve]"
CC1(C)CC(=O)C(=Cc2cn(CCC#N)nc2-c2ccc(F)cc2)C(=O)C1,-23.4%,,"29.1 µM [falling, single point]"
CCN(CC)CCN(C(=O)c1ccc2ccccc2c1)c1nc2ccc(F)cc2s1,-0.917%,,
CC(C)(C)OC(=O)NCCCC[C@@H](C(=O)N1CCN(C(=O)OC(C)(C)C)CC1)n1cc(CCC(=O)O)nn1,-26.4%,,
CCOc1ccc(CN(C)C(C)C(=O)NCCc2ccc(F)cc2)cc1 (configuration not stated),13.4%,,
O=S(=O)(c1ccc(Cl)cc1)N1CCCc2ccccc21,4.99%,,"5.8 µM [falling, full curve]"
COc1cc(/C=c2\sc3n(c2=O)C(c2ccccc2)C(c2ccccc2)=NN=3)ccc1O (configuration not stated),-35.8%,"0.82 µM [falling, full curve, poor fit]",
Cc1ccc(NS(=O)(=O)c2cc([N+](=O)[O-])ccc2NNC(=S)Nc2cccc(Cl)c2)c(C)c1,-13.2%,,"29.1 µM [falling, single point]"
COc1ccc(C(=O)Nc2nc3ccccc3[nH]2)cc1,15.8%,,
COc1cc(NS(=O)(=O)c2ccc(N/C=C(\C=O)c3nc4cc(Cl)ccc4o3)cc2)nc(OC)n1,-9.21%,,"0.00461 µM [rising, full curve, poor fit]"
COc1cc(C)c(NC(=O)c2cc(C3CC3)nc3c2cnn3C(C)C)cc1OC,-2.52%,,"0.92 µM [rising, partial curve]"
O=C1CC(c2ccc(Cl)cc2)CC(O)=C1C=NCc1ccc(Cl)c(Cl)c1 (configuration not stated),-71.7%,,"29.1 µM [falling, single point]"
CCC(=O)N1CC2(C)CN(C(=O)CC)CC(C)(C1)C2,0.759%,,
Cc1n[nH]c(C)c1N1C(=O)c2cccc3c(Br)ccc(c23)C1=O,-34.2%,"7.31 µM [falling, partial curve, poor fit]","6.51 µM [falling, full curve, poor fit]"
COc1ccc([C@H]2CC(=O)C=C(c3ccc(CNC(=O)OC(C)(C)C)cc3)C2)cc1,0.491%,"0.00411 µM [falling, full curve, poor fit]","0.00461 µM [falling, full curve, poor fit]"
COc1cccc(/C=N/NC(=O)c2ccc(COc3ccc(Cl)cc3Cl)o2)c1,14.8%,,
Cc1cccc(NC(=S)N/C(=N/S(=O)(=O)c2ccccc2)c2ccccc2)c1,2.11%,,"6.51 µM [rising, single point]"
CN(C)S(=O)(=O)c1cccc(-c2nnc(-c3ccccc3)o2)c1,148%,"7.31 µM [rising, partial curve]","2.06 µM [rising, full curve]"

Compound,cell number change,AC50 [1],AC50 [2]
Cc1ccc2cccc(NC(=O)C(F)(F)F)c2n1,33.5%,"4.11 µM [rising, partial curve]",
Cc1ccc(CN2C(=O)CCC2C(=O)NCC2CCCO2)cc1 (configuration not stated),-27.6%,,"29.1 µM [falling, single point]"
COC(=O)c1ccc(Cn2nc(C)cc2C)cc1,,,"6.51 µM [rising, single point]"
COc1ccc(Cn2nnnc2C(C(C)C)N(Cc2ccco2)Cc2cccs2)cc1 (configuration not stated),-24%,,"7.31 µM [rising, partial curve]"
CC(C)c1ccc(-n2nc3ccc(N)cc3n2)cc1,,"2.06 µM [falling, partial curve, poor fit]","0.00517 µM [falling, full curve, poor fit]"
Fc1ccc(CNc2ncnc3c2cnn3-c2ccccc2)cc1,-48.2%,"18.4 µM [falling, partial curve]","1.46 µM [rising, full curve]"
CC(CCc1ccccc1)NC(=O)/C=C/c1ccccc1 (configuration not stated),-10.8%,,"3.66 µM [rising, full curve, poor fit]"
CCc1ccc(NC2CC(=O)N(c3ccc(OC)cc3OC)C2=O)cc1 (configuration not stated),2.89%,,"6.51 µM [rising, single point]"
Cc1ccc(O)c(C(=O)c2cc(C#N)c(=O)n(-c3c(C)n(C)n(-c4ccccc4)c3=O)c2)c1,22.7%,,"29.1 µM [rising, partial curve, poor fit]"
c1ccc2c(c1)nc1n2C2(N3CCOCC3)CCCC2C1N1CCOCC1 (configuration not stated),-27%,,"32.6 µM [falling, single point]"
Cc1n[nH]c(C)c1Cc1c(F)cccc1Cl,42.4%,"5.17 µM [rising, full curve]","29.1 µM [falling, single point]"
CN(CCc1ccccn1)C(=O)CCc1nnc(CCCc2ccccc2)o1,15.1%,,"29.1 µM [rising, single point]"
COc1ccc(Cl)cc1NS(=O)(=O)c1cc(Cl)ccc1OC,-3.94%,,"0.58 µM [falling, single point]"
CCOc1ccc(Br)cc1S(=O)(=O)NCc1ccc(S(N)(=O)=O)cc1,157%,,
CCCOc1ccc(N2C(=O)CC(N(CCc3ccccc3)C(=O)c3ccccc3)C2=O)cc1 (configuration not stated),-36.5%,"20.6 µM [falling, single point]","16.4 µM [falling, partial curve, poor fit]"
COc1ccc(Nc2cc(C)nc3ncnn23)c(OC)c1,-11.2%,,"6.51 µM [falling, partial curve, poor fit]"
Cc1ccc2nc3c(c(Nc4ccc5c(c4)OCCO5)c2c1)CCC3,,,"0.731 µM [rising, single point]"
CC(C)(C)OC(=O)N1CCN(C(=O)c2[nH]cnc2C(=O)NCC(=O)OCc2ccccc2)CC1,28.1%,"0.184 µM [rising, full curve, poor fit]",

# Whole records, quoted from the list:
# Cc1cccc(NC(=S)N/C(=N/S(=O)(=O)c2ccccc2)c2ccccc2)c1 is entered as cell number change: 2.11%; AC50 [2]: 6.51 µM [rising, single point]
# O=S(=O)(c1ccc(Cl)cc1)N1CCCc2ccccc21 is entered as cell number change: 4.99%; AC50 [2]: 5.8 µM [falling, full curve]
